# Data as given in US5980899A, “Identification of peptides that stimulate hepatitis C virus specific cytotoxic T cells” (The United States of America as represented by the …, priority 1992, dated 1999).
# Several values for one entry are separate records, joined by “and”; a condition that tells them apart may be missing. Identical values can stand only once. Like-named read-outs stand apart in the source and are kept apart here. Not every detail of the peptide structures is certain; ends, links or a residue may be inferred. Some compounds share one wording; it may come from a single statement. No end group written: not given here.
# Assays:
# [1] = tested on: 18Neo (H-2^d class I positive, class II negative) target cells; test: CTL responses to HCV NS5 peptides in BALB/c mice (FIG. 1B); type: cell-based; details: E:T 100:1
# [2] = tested on: EL-4 (H-2^b) target cells; test: CTL responses to HCV NS5 peptides in BALB.B mice (FIG. 1B); type: cell-based; details: BALB.B (H-2^b) mice immunized with vHCV; EL-4 targets
# 18Neo target cells = test: Cytotoxicity of long-term CTL lines specific for P17 and P17FDA (FIG. 2, FIG. 3); type: cell-based, BALB/c mice; details: for killing of targets by H-2^d restricted CTL lines (FIG. 3): 18Neo infected with vHCV or pulsed with the labelled peptide; for lysis of targets with the stimulating peptide by the CTL line: CTL lines from repetitive stimulation with the labelled peptide (FIG. 2)
# D^d class I MHC molecule = test: MHC class I molecule presenting the peptide: exon-shuffled and wild type class I transfectants (FIG. 5); type: cell-based, mouse
# T cells = test: Response to P17 stimulation in a chronically infected chimpanzee; type: cell-based; details: one chronically infected chimpanzee
# [3] = tested on: 18Neo (BALB/c 3T3 fibroblast, H-2^d) target cells; details: for crossreactivity for stimulation of CTL and for sensitization of targets: Table 1, two independent experiments; for % Specific lysis unpulsed: target unpulsed 18Neo, no peptide
# [4] = targets pulsed with 10 μM peptide, E:T 10:1
compound,measurement,setting,value
"CSCC[C@H](N)C(=O)N[C@@H](CO)C(=O)N[C@@H](Cc1ccc(O)cc1)C(=O)N[C@@H](CO)C(=O)N[C@@H](Cc1c[nH]c2ccccc12)C(=O)N[C@H](C(=O)NCC(=O)N[C@@H](C)C(=O)N[C@@H](CC(C)C)C(=O)N[C@H](C(=O)N[C@H](C(=O)N1CCC[C@H]1C(=O)N[C@@H](CS)C(=O)N[C@@H](C)C(=O)N[C@@H](C)C(=O)N[C@@H](CCC(=O)O)C(=O)O)[C@@H](C)O)C(C)C)[C@@H](C)O [P17, MSYSWTGALVTPCAAE]",CTL responses to peptide,"[1]; BALB/c mice immunized with vHCV, spleen cells restimulated with 4 μM peptides, targets sensitized with 10 μM peptide",developed CTL responses
same,Lysis in the absence of peptide,"[1]; BALB/c, peptide-stimulated immune cells, 18Neo targets without peptide",4.2%
same,CTL response to peptide,[2],not a responder
same,killing of targets by H-2^d restricted CTL lines (FIG. 3),18Neo target cells,able to kill
same,lysis of targets with the stimulating peptide by the CTL line,18Neo target cells,highly specific lysis
same,"presentation to the CTL by K^d, L^d or other D^d/L^d exon-shuffled class I molecules",D^d class I MHC molecule; [4],Neither
same,presentation to the CTL by T37.2.1 (α1α2 of D^d) and T4.8.3 (D^d),D^d class I MHC molecule; [4],nearly as well as the positive control cells
same,T-cell proliferation in response to stimulation,T cells,has been observed
same,% Specific lysis P17FDA,[3],38.0
same,% Specific lysis P17JPN,[3],37.9
same,% Specific lysis P18IIIB,[3],1.7 and 3.3
same,% Specific lysis vHCV,[3],0.7 and 1.2
same,peptide concentration required to stimulate CTL in vitro secondarily or to sensitize targets to get the maximal lysis,[3]; H-2^d,0.1 to 1 µM
same,crossreactivity for stimulation of CTL and for sensitization of targets,[3],nearly interchangeable
same,peptide concentration for the stimulation of immune spleen cells to elicit the highest level of lysis,[3]; against H-2-matched peptide-pulsed target cells,1 to 10 µM
same,% Specific lysis P17,"[3]; immunization vHCV, restimulation P17 0.1 μM, target 18Neo + P17 10 μM, E:T 100:1",17.1%
same,% Specific lysis P17FDA,"[3]; immunization vHCV, restimulation P17 0.1 μM, target 18Neo + P17FDA 10 μM, E:T 100:1",12.8%
same,% Specific lysis P17JPN,"[3]; immunization vHCV, restimulation P17 0.1 μM, target 18Neo + P17JPN 10 μM, E:T 100:1",12.9%
same,% Specific lysis P18IIIB,"[3]; immunization vHCV, restimulation P17 0.1 μM, target 18Neo pulsed with P18IIIB 1 μM, E:T 100:1",3.3%
same,% Specific lysis unpulsed,"[3]; immunization vHCV, restimulation P17 0.1 μM, E:T 100:1",0.0%
same,% Specific lysis P17,"[3]; immunization vHCV, restimulation P17 1 μM, target 18Neo + P17 10 μM, E:T 100:1",33.8%
same,% Specific lysis P17FDA,"[3]; immunization vHCV, restimulation P17 1 μM, target 18Neo + P17FDA 10 μM, E:T 100:1",32.4%
same,% Specific lysis P17JPN,"[3]; immunization vHCV, restimulation P17 1 μM, target 18Neo + P17JPN 10 μM, E:T 100:1",31.9%
same,% Specific lysis P18IIIB,"[3]; immunization vHCV, restimulation P17 1 μM, target 18Neo pulsed with P18IIIB 1 μM, E:T 100:1",1.4%
same,% Specific lysis unpulsed,"[3]; immunization vHCV, restimulation P17 1 μM, E:T 100:1",0.7%
same,low concentration of peptide at which specific lysis was induced,[3]; titration of peptide used for stimulation of immunized spleen cells,0.1 µM
"CSCC[C@H](N)C(=O)N[C@@H](CO)C(=O)N[C@@H](Cc1ccc(O)cc1)C(=O)N[C@H](C(=O)N[C@@H](Cc1c[nH]c2ccccc12)C(=O)N[C@H](C(=O)NCC(=O)N[C@@H](C)C(=O)N[C@@H](CC(C)C)C(=O)N[C@H](C(=O)N[C@H](C(=O)N1CCC[C@H]1C(=O)N[C@@H](CS)C(=O)N[C@@H](C)C(=O)N[C@@H](C)C(=O)N[C@@H](CCC(=O)O)C(=O)O)[C@@H](C)O)C(C)C)[C@@H](C)O)[C@@H](C)O [P17FDA, MSYTWTGALVTPCAAE]",killing of targets by H-2^d restricted CTL lines (FIG. 3),18Neo target cells,able to kill
same,lysis of targets with the stimulating peptide by the CTL line,18Neo target cells,highly specific lysis
same,MHC restriction of CTL recognizing the peptide,"D^d class I MHC molecule; BALB/c, compared with P17",Identical restriction
same,% Specific lysis P17,[3],34.9
same,% Specific lysis P17JPN,[3],36.1
same,% Specific lysis P18IIIB,[3],1.7 and 2.2
same,% Specific lysis vHCV,[3],0.8 and 1.1
same,crossreactivity for stimulation of CTL and for sensitization of targets,[3],nearly interchangeable
"MSYTWTGALITPCAAE [P17JPN, MSYTWTGALITPCAAE]",% Specific lysis P17,[3],39.7
same,% Specific lysis P17FDA,[3],36.7
same,% Specific lysis P18IIIB,[3],1.8 and 2.5
same,crossreactivity for stimulation of CTL and for sensitization of targets,[3],nearly interchangeable
